Measurements reported in PubChem BioAssay AID1159578 (Peter MacCallum Cancer Centre, 2015)
Aim: 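siRNA pools altering how lymphatic endothelial cells close a scratch wound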 (primary screen). System: human lymphatic endothelial cells. Reagent: siRNA pool against human genes, 40 nM. Time to read-out: 48 h after transfection. Read-out: 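Cells stained with dye and imaged after a scratch; covered wound area and nuclei counted, duplicates averaged, migration set against mock wells and turned into a robust z-score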. Direction: migration robust z-score: higher = faster migration into the scratch; nuclei per well: higher = more cells in the well. Rule for the call: 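Migration changed when robust z exceeds 2 or falls below -2 and mean nuclei number is at least 3300; otherwise not called changed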. Meaning of the calls: active = migration changed; inactive = no migration change, or too few cells.
This is one part, drawn at random, of about 18,000 reagents tested. Over the whole deposit, about 1,030 (5.7%) got an active call. 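Inactive calls also include pools with fewer than 3300 nuclei, whose migration was not assessed.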 The raw values are shown without normalisation. Unmarked entries are inactive. Further read-outs or replicates are left out here.

gene	PubChem SID	migration robust z-score	nuclei per well, duplicate mean
BAIAP2	SID255355094	-1.09	4458
OR2G3	SID255360868	0.07	5154
GRM8	SID255350056	0.42	6843
BDH1	SID255348531	0.18	6578
PCSK5	SID255351453	0.02	5908
IGBP1	SID255350421	0.5	6618
AVL9	SID255355974	0.4	5196
MTFP1	SID255357773	-0.31	4884
FKBP6	SID255353575	0.42	6008
PRKD3	SID255356406	-3.82 (active)	3416
SMAD7	SID255350840	-0.18	5890
RAMAC	SID255361046	0.38	6859
STAP2	SID255358725	-0.21	6403
GNAI1	SID255349933	-1.02	5410
ZSCAN1	SID255364761	1.27	7272
TM4SF18	SID255362373	-0.72	5115
PPP2R3B	SID255357061	0.7	3766
CHST8	SID255359908	-3.45 (active)	4194
EPB41L4B	SID255358089	0.86	5520
FAIM2	SID255355929	0.44	6416
CCND3	SID255348736	1.58	5382
ELP4	SID255356831	-0.4	6515
MECP2	SID255350922	-1.95	5306
COXFA4L3	SID255361356	-0.7	5720
CEP15	SID255359382	-2.34 (active)	3474
CDADC1	SID255360910	-3.63	2956
CCDC167	SID255363593	-1.22	5832
FAM110B	SID255361816	0.61	8852
WSCD1	SID255356143	0.57	5497
RNF144A	SID255354550	-0.08	5082
RUVBL1	SID255353674	0.96	6311
EYS	SID255365200	-0.6	5062
PUS1	SID255360758	-0.54	5700
CHIC2	SID255356797	0.05	6252
NABP2	SID255360176	-0.76	6436
RAP1GAP2	SID255355995	-0.08	6106
VMP1	SID255360936	-0.12	5146
SREK1	SID255363159	-0.92	5799
ZFYVE9	SID255354228	0.67	5392
GK2	SID255349902	1.32	7344
YKT6	SID255355259	1.12	5711
CAPN13	SID255361997	-1.66	5128
PFDN2	SID255351519	0.88	5778
DNAJA1	SID255350329	-0.02	6244
FCGR1BP	SID255349645	-1.49	4500
TOMM20L	SID255365467	0.43	5114
KRTAP5-6	SID255365883	0.94	5466
RECK	SID255353547	0.03	5718
DCAF16	SID255358233	-0.87	6642
PHLDA2	SID255352987	0.73	5816
BSPRY	SID255358200	0.12	5131
PRRT2	SID255362142	0.78	6726
DET1	SID255358387	0.84	6052
MRPL44	SID255360084	-0.49	6380
TDRD10	SID255362722	0.87	6787
SDR9C7	SID255362512	4.02 (active)	6342
ZNF600	SID255363761	1.25	6152

Entries listed so far called active, once more:
gene	PubChem SID	migration robust z-score	nuclei per well, duplicate mean
PRKD3	SID255356406	-3.82 (active)	3416
CHST8	SID255359908	-3.45 (active)	4194
CEP15	SID255359382	-2.34 (active)	3474
SDR9C7	SID255362512	4.02 (active)	6342
